{
  "sequences": {"note": "The chains behind the UniProt entries cited, without tags or fusion partners. Where a name states a change or a piece, a line headed by the entry shows the natural chain unless it says otherwise.", "UniProt O15379": "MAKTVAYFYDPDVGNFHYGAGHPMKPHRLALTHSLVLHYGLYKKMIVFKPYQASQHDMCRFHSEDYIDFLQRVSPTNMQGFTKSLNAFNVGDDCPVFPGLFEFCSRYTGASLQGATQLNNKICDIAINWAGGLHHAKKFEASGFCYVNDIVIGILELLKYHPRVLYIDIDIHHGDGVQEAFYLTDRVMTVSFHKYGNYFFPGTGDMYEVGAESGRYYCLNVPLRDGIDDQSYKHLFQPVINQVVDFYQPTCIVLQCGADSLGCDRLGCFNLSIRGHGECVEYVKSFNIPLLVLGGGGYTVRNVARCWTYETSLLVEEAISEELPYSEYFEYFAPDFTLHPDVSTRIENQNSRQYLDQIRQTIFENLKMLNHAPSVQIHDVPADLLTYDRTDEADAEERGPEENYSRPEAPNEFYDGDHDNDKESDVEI"},
  "source": "PubChem BioAssay AID485318",
  "about": "(Broad Institute, 2010)",
  "note": "Hit rate of the full screen: of about 1,400 compounds, fewer than 10 were called active.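 How the source made its calls: active means fluorescence-lowering compounds whose fitted half-maximal concentration is at or below ten times the highest valid dose tested; inconclusive means flat curve at 30 to 70% inhibition, or poor fit; inactive means the rest.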 The list shows a part of the results.",
  "data": [
    {"target": "Histone deacetylase 3 (Homo sapiens) (UniProt O15379)", "assay": "inhibition of human HDAC3 enzymatic activity – biochemical, fluorescence, cherry-picked samples, counter-screen for JMJD2C/GASC1 demethylase inhibitor project, dose response (AID 485318);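 further: enzyme preincubated with compound before substrate and trypsin were added; 0% = neutral control wells and -100% = SAHA positive control wells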", "conditions": "recombinant HDAC3, fluorogenic peptide/trypsin coupled; at 12 µM (top of the series)", "values": [
      {"smiles": "O=c1nc(SCc2cccc(C(F)(F)F)c2)nc2ccccn12", "activity change, negative = inhibition": "inactive: 0.315%"},
      {"smiles": "Nc1nn2c(-c3ccccc3)cc(=O)[nH]c2c1N=Nc1ccc(O)cc1", "activity change, negative = inhibition": "inactive: -0.625%"},
      {"smiles": "CC1=C(C#N)C(Nc2ccc(C)cn2)(C(F)(F)F)C(=O)N1", "note": "(stereo not drawn)", "activity change, negative = inhibition": "inactive: 0.146%"},
      {"smiles": "OCc1ccc(OCCCOc2cccc3cccnc23)cc1", "activity change, negative = inhibition": "inactive: -0.0166%"},
      {"smiles": "O=C(NCC(c1ccco1)N1CCCCC1)c1ccc(OCc2ccccc2)cc1", "note": "(stereo not drawn)", "activity change, negative = inhibition": "inactive: -0.0798%"},
      {"smiles": "c1ccc(-c2nc(-c3ccco3)cs2)nc1", "activity change, negative = inhibition": "inactive: -0.223%"},
      {"smiles": "Oc1cc2c(cc1O)C(c1ccccc1)CNCC2", "note": "(stereo not drawn)", "activity change, negative = inhibition": "inactive: 0.288%"},
      {"smiles": "Fc1cccc(F)c1/C=N/N1CCOCC1", "activity change, negative = inhibition": "inactive: 0.343%"},
      {"smiles": "CCOC(=O)N1CCN(c2ccc(F)cc2[N+](=O)[O-])CC1", "activity change, negative = inhibition": "inactive: 0.606%"},
      {"smiles": "O=C(/C=C\\c1ccc2c(c1)OCO2)NC1(C(=O)Nc2ccc3c(c2)OCO3)CCCCC1", "activity change, negative = inhibition": "inactive: 0.815%"},
      {"smiles": "CC(C)CC(=O)Nc1ccccc1N1CCOCC1", "activity change, negative = inhibition": "inactive: -0.676%"},
      {"smiles": "CCC(Sc1nc(N)c(NC(=O)c2ccc(Br)o2)c(=O)[nH]1)C(=O)O", "note": "(stereo not drawn)", "activity change, negative = inhibition": "inactive: 0.305%"},
      {"smiles": "O=C(CSc1nc(-c2ccccc2)cc(=O)[nH]1)NCc1ccc2c(c1)OCO2", "activity change, negative = inhibition": "inactive: 1.31%"},
      {"smiles": "CCC(=O)Nc1ccc(NC(=O)CSc2nnnn2C(C)C)cc1", "activity change, negative = inhibition": "inactive: 0.553%"},
      {"smiles": "COc1ccc(CCN=C(NS(=O)(=O)c2ccc(Cl)cc2)c2ccccc2)cc1", "activity change, negative = inhibition": "inactive: 0.401%"},
      {"smiles": "CCOC(=O)c1ccc(N2C(=O)C(C)=C(C)C2=O)cc1", "activity change, negative = inhibition": "inactive: 0.048%"},
      {"smiles": "Cc1cccc(-c2noc(CCC(=O)NC3CCCC3)n2)c1", "activity change, negative = inhibition": "inactive: 0.292%"},
      {"smiles": "C#CCOCCOCCOCCNc1nc(N2CCN(C(=O)CCCCCCCCCCNC(=O)[C@H](CO)n3cc(CCCSC)nn3)CC2)nc(N2CCN(C(=O)CCCCCCCCCCNC(=O)[C@H](CCCN=C(N)N)n3cc(C[C@@H](C)CC)nn3)CC2)n1", "activity change, negative = inhibition": "inactive: -0.115%"},
      {"smiles": "Cc1cc(C(=O)OCc2nnc(-c3ccccc3)o2)c(C)n1-c1ccccc1", "activity change, negative = inhibition": "inactive: -0.284%"},
      {"smiles": "O=C(Oc1cccc2cccnc12)c1cccc(N2C(=O)C3C4CCC(C4)C3C2=O)c1", "note": "(stereo not drawn)", "activity change, negative = inhibition": "inactive: -0.368%"},
      {"smiles": "CCc1ccc(-c2nc(CN3CCC(C(=O)NCc4ccc(F)cc4)CC3)c(C)o2)cc1", "activity change, negative = inhibition": "inactive: -0.3%"},
      {"smiles": "Cc1ccc(S(=O)(=O)N2[C@@H](c3ccc(Br)cc3)C(C(=O)O)=C[C@H]2CC2CCCC2)cc1", "activity change, negative = inhibition": "inactive: 0.0703%"},
      {"smiles": "CCC(=O)Nc1ccccc1Nc1cc(C#N)c(C#N)cc1[N+](=O)[O-]", "activity change, negative = inhibition": "inactive: 0.0903%"},
      {"smiles": "Nn1cc(-c2ccccc2)nc1SCC(=O)N1CCN(S(=O)(=O)c2ccc3ccccc3c2)CC1", "activity change, negative = inhibition": "inactive: -0.203%"},
      {"smiles": "COc1ccc(NC(=O)CCc2ccccc2)cc1NC(=O)c1ccco1", "activity change, negative = inhibition": "inactive: 0.709%"},
      {"smiles": "CC1(C)CC[C@]2(CO)CC[C@]3(C)C(=CCC4[C@@]5(C)CC[C@H](O)[C@@](C)(CO)C5CC[C@]43C)[C@@H]2C1", "note": "(stereo partly drawn)", "activity change, negative = inhibition": "inactive: -0.14%"},
      {"smiles": "CCOC(=O)C1=C(C)NC(=O)NC1c1ccc(Br)s1", "note": "(stereo not drawn)", "activity change, negative = inhibition": "inactive: -0.578%"},
      {"smiles": "O=C(Cc1ccccc1Cl)NC1(O)C(=O)c2ccccc2C1=O", "activity change, negative = inhibition": "inactive: 0.909%"},
      {"smiles": "Cc1c(C2Nc3ccccc3NC3=C2C(=O)CC(C)(C)C3)cnn1C", "note": "(stereo not drawn)", "activity change, negative = inhibition": "inactive: 1.16%"},
      {"smiles": "C[C@H](CO)N1C[C@H](C)[C@H](CN(C)S(=O)(=O)c2ccccc2)Oc2c(NS(C)(=O)=O)cccc2C1=O", "activity change, negative = inhibition": "inactive: 0.0101%"},
      {"smiles": "CS(=O)(=O)N(CCc1ccccc1)CC(=O)NCc1ccc(Cl)cc1", "activity change, negative = inhibition": "inactive: -0.337%"},
      {"smiles": "CCCOC(=O)c1ccc(-c2ccc(C=O)o2)cc1", "activity change, negative = inhibition": "inactive: 0.318%"},
      {"smiles": "COC(=O)c1cc(OC)c(OC)cc1NC(=O)Cn1nnc(-c2ccccc2Cl)n1", "activity change, negative = inhibition": "inactive: 0.277%"},
      {"smiles": "Cc1ccc([N+](=O)[O-])cc1N=C(c1cccc([N+](=O)[O-])c1)N1CCOCC1", "activity change, negative = inhibition": "inactive: 0.611%"},
      {"smiles": "O=[N+]([O-])c1cc(Cl)ccc1Nc1ccccc1", "activity change, negative = inhibition": "inactive: 0.735%"},
      {"smiles": "O=C1c2ccccc2C(=O)N1CCC(c1ccccc1)c1ccco1", "note": "(stereo not drawn)", "activity change, negative = inhibition": "inactive: -0.452%"},
      {"smiles": "Cc1ccccc1NS(=O)(=O)c1ccc(C(=O)NCC(c2ccco2)N(C)C)cc1", "note": "(stereo not drawn)", "activity change, negative = inhibition": "inactive: 0.678%"},
      {"smiles": "CCCc1nn2c(=O)cc(CSCC(=O)Nc3ccccc3)nc2s1", "activity change, negative = inhibition": "inactive: 0.766%"},
      {"smiles": "Cc1cc(C)c(OCC(=O)Nc2ccc(NC(=O)c3ccco3)cc2)c([N+](=O)[O-])c1", "activity change, negative = inhibition": "inactive: 0.897%"},
      {"smiles": "CCOC(=O)CCCCCC(=O)Nc1ccc2c(c1)CC(=O)N([C@H](C)CO)C[C@@H](C)[C@H](CN(C)Cc1ccc3c(c1)OCO3)O2", "activity change, negative = inhibition": "inactive: -0.945%"},
      {"smiles": "O=C(O)c1ccnc(C(=O)O)c1", "activity change, negative = inhibition": "inactive: -0.152%"},
      {"smiles": "C[C@@H]1CN([C@@H](C)CO)C(=O)c2cc(NC(=O)Nc3ccc4c(c3)OCO4)ccc2O[C@H]1CN(C)S(=O)(=O)c1ccc(F)cc1", "activity change, negative = inhibition": "inactive: -0.312%"},
      {"smiles": "COc1ccc2c(c1)OC[C@H]1[C@H]2N2C(=O)CNC(=O)[C@@]2(C)[C@H]1c1ccccc1", "activity change, negative = inhibition": "inactive: -0.581%"}
    ]}
  ]
}
